This test deals with T1, …1 (Arabidopsis (endogenous in leaves)) (UniProt P32961).
T1 sequence: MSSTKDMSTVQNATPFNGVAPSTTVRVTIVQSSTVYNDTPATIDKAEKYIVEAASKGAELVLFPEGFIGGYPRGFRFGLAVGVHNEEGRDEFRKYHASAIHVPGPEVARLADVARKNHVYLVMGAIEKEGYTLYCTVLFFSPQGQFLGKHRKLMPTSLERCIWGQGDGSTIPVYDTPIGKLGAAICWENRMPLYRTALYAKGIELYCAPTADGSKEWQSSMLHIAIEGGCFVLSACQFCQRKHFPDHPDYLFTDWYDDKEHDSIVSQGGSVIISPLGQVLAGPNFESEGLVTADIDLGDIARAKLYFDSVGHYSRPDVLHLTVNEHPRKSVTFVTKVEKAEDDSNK
Put plainly: affinity purification with mass spectrometry; CoIP-MS with anti-NIT1 antibody against preimmune sera; three biological replicates; cholate-solubilized microsomal proteins of Arabidopsis leaves; hits needed two or more peptides.

No constants are given. Whether binding was seen depends on the method and setting. Binding seen in cells or lysates may run through a third protein. A yes stands for co-enrichment or nearness to the bait. Other partners may have been found.

Take “THIOREDEXOIN M-TYPE1 (Arabidopsis (endogenous in leaves))”: the binding entry is listed as “binds”.

B1: THIOREDOXIN M2 (protein, UniProt Q9SEU8 73-186)
chain: CEAQETTTDIQVVNDSTWDSLVLKATGPVVVDFWAPWCGPCKMIDPLVNDLAQHYTGKIKFYKLNTDESPNTPGQYGVRSIPTIMIFVGGEKKDTIIGAVPKTTLTSSLDKFLP
For B1, the binding result is recorded as “binds”.

B2: NIT3 (enzyme, UniProt P46010 1-346)
chain: MSSTEEMSSVKNTTQVIGVDPSSTVRVTIVQSSTVYNDTPATLDKAEKFIVEAASKGAKLVLFPEAFIGGYPRGFRFGLAVGVHNEEGRDEFRNYHASAIKVPGPEVERLAELAGKNNVHLVMGAIEKDGYTLYCTALFFSPQGQFLGKHRKVMPTSLERCIWGQGDGSTIPVYDTPIGKIGAAICWENRMPLYRTALYAKGIEIYCAPTADYSLEWQASMIHIAVEGGCFVLSAHQFCKRREFPEHPDYLFNDIVDTKEHDPTVSGGGSVIISPLGKVLAGPNYESEGLVTADLDLGDIARAKLYFDVVGHYSKPDIFNLTVNEHPKKPVTFMTKVEKAEDESNK
Regarding B2, the binding entry is on record as “binds”.

Source of the values: PMC5672003.
